The other results are listed elsewhere or left out.
Experiments:
Test in all cases: log2 fold change, soluble protein after heating vs DMSO (PISA); higher = thermal stabilisation; K562 cells, 10 uM, 30 min; active = over 0.2 and 3.5 SD of the protein, either way, in both replicates (recomputed)
[1] = compound: NC(=O)Nc1cc(-c2cccc(F)c2)sc1C(=O)N[C@H]1CCCNC1
How it was run: (§1)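 Soluble protein was quantified by TMTpro 16plex LC-MS/MS after channel sums were equalised. It was obtained as the supernatant after 21,000xg for 90 min from pooled aliquots of K562 cells (2×10^6 cells/mL, 10 μM compound, 30 min) heated for 3 min across 48°C-58°C and extracted in PBS with 0.5% NP-40 at 4°C. Thermal stability values are relative to control samples and come from duplicates. They are given as log2 fold changes.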

Sequences of proteins named here, by UniProt entry; tags and fusion partners are left off. A change or cut given only in a name is not applied to a line headed by its entry.
UniProt Q96S59, whole entry, looked up: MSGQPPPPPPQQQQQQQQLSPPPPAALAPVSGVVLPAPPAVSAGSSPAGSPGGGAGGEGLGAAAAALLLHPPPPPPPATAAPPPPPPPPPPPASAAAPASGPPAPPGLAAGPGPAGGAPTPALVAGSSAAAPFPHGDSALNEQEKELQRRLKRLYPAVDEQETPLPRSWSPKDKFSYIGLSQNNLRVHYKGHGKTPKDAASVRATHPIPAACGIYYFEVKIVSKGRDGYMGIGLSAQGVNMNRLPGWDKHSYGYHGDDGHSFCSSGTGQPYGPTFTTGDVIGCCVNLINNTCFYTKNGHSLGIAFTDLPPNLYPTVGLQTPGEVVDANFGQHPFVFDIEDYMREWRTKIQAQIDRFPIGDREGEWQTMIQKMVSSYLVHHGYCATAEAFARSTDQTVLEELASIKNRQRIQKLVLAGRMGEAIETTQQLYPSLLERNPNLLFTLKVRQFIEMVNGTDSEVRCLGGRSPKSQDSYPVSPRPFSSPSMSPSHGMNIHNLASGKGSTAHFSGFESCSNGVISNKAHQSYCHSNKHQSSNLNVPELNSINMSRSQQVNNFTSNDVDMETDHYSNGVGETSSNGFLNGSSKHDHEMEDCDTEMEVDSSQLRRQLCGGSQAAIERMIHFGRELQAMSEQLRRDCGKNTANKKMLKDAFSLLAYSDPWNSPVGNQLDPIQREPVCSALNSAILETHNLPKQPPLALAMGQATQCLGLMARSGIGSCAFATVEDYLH
UniProt Q86YS6: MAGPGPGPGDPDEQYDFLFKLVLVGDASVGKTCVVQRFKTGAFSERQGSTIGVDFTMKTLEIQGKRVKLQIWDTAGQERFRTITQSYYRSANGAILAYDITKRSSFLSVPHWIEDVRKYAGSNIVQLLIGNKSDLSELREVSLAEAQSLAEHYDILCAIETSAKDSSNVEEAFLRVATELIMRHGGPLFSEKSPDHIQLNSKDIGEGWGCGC
UniProt Q15286: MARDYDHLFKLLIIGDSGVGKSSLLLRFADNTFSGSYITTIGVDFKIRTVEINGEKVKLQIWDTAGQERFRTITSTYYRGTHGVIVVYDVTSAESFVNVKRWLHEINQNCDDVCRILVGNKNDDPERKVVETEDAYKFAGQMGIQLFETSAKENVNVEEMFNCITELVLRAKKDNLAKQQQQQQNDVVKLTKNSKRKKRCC
UniProt Q15283: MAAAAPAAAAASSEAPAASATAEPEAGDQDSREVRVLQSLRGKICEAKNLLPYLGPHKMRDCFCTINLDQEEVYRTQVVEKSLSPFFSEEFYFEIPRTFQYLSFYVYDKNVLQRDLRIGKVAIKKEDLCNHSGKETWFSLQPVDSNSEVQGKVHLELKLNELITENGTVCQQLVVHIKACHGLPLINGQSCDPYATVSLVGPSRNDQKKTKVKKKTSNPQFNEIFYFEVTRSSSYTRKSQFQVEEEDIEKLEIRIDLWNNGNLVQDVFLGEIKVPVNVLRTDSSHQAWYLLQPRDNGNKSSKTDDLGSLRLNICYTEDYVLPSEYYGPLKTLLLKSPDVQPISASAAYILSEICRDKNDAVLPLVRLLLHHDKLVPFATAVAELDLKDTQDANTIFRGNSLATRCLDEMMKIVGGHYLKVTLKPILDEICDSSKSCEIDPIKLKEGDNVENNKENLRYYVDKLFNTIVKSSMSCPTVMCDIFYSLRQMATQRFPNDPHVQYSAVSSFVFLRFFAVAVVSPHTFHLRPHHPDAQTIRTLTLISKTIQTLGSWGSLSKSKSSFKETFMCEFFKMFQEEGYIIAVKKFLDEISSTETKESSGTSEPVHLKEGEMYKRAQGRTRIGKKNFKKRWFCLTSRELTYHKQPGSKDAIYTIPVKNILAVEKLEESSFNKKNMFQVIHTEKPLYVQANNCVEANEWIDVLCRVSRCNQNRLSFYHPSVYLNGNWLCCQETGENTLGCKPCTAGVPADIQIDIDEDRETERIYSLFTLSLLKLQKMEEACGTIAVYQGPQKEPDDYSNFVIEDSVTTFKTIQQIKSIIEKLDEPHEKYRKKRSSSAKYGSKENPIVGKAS
UniProt Q9NS91, whole entry, looked up: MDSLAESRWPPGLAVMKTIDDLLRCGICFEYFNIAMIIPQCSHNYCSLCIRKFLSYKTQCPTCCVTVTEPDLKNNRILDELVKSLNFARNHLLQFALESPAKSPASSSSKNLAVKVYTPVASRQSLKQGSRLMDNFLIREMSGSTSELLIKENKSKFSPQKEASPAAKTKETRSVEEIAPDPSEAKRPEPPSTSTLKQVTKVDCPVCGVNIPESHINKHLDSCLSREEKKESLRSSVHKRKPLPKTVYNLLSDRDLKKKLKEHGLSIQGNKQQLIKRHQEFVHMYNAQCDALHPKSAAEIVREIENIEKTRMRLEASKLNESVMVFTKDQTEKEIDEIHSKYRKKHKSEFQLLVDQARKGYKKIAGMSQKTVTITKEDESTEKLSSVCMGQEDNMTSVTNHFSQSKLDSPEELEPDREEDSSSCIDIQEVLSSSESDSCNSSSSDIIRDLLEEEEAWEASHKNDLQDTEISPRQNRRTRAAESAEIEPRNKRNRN
UniProt Q86U06: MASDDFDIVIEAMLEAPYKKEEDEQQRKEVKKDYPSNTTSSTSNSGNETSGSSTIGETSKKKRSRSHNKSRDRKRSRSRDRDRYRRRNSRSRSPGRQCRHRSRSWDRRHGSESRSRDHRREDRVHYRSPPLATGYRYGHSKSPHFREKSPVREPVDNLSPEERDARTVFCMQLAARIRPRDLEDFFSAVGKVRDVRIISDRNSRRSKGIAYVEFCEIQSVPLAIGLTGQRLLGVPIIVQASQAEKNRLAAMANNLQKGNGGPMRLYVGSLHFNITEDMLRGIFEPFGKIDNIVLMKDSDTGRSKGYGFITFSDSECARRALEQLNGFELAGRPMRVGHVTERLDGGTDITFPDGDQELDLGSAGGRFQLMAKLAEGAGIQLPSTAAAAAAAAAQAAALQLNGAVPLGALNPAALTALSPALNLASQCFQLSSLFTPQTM
UniProt Q8N0V3: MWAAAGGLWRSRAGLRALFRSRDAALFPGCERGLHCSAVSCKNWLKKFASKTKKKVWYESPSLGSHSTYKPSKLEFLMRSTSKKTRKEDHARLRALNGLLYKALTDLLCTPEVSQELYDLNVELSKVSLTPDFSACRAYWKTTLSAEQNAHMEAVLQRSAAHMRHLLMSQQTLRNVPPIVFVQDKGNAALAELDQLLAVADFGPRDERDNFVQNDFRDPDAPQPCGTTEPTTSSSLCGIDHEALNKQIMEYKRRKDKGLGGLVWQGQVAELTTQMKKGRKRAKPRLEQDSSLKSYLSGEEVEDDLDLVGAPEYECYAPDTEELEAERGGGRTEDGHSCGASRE
UniProt Q13905: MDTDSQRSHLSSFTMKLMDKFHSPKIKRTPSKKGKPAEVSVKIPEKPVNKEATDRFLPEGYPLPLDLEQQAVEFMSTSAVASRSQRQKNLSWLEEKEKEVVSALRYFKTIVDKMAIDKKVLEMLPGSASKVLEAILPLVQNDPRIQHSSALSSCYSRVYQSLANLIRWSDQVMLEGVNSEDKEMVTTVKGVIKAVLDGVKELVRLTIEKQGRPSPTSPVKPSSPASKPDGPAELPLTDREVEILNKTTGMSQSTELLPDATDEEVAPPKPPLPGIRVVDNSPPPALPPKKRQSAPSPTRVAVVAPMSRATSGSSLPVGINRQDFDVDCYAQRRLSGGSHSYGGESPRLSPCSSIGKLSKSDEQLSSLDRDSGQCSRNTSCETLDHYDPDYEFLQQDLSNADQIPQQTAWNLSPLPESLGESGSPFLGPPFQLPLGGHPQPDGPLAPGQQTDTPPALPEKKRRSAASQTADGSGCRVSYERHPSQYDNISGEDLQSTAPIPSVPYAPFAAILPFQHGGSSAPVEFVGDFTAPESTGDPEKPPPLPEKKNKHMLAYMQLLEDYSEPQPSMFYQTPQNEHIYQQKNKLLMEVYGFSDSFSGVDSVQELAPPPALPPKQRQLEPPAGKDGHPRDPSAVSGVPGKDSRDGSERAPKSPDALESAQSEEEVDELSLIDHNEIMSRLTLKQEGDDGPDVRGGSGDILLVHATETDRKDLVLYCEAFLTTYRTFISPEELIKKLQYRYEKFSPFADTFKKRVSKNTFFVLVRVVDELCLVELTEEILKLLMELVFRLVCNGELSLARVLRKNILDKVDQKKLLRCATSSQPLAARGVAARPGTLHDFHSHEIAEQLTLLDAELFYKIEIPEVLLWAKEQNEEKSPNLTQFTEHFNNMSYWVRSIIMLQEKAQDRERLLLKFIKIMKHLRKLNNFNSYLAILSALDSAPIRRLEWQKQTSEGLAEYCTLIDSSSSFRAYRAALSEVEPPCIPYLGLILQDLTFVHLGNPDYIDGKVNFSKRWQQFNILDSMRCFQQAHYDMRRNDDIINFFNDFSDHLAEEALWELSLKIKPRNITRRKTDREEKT
UniProt O60518: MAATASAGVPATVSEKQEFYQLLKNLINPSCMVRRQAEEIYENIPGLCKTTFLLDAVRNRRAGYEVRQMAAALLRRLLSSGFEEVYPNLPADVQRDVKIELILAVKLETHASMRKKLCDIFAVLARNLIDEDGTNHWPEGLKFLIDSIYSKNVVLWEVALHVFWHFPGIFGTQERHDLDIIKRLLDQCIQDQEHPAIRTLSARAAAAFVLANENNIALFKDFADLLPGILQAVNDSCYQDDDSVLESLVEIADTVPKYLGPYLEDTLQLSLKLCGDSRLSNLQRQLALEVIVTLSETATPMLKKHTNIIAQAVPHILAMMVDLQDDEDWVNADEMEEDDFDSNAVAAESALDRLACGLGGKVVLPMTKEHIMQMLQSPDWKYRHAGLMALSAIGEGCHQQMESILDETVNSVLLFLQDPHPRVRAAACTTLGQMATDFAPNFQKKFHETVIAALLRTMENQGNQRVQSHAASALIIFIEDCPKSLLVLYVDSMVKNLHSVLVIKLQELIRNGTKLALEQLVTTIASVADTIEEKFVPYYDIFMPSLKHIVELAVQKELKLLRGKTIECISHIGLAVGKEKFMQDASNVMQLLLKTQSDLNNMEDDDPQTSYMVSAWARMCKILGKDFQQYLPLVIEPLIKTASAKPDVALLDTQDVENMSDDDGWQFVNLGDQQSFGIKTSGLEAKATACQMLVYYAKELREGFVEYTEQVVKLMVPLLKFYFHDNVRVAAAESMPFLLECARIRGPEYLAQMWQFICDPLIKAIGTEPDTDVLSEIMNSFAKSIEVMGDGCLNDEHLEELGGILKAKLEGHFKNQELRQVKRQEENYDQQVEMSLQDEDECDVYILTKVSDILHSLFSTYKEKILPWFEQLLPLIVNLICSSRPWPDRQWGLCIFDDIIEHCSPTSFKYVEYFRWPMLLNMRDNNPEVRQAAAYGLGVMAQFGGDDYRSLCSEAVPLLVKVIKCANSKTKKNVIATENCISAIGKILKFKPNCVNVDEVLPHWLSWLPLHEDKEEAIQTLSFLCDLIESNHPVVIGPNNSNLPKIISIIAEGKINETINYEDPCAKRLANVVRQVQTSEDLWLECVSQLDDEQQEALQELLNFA
UniProt Q14644: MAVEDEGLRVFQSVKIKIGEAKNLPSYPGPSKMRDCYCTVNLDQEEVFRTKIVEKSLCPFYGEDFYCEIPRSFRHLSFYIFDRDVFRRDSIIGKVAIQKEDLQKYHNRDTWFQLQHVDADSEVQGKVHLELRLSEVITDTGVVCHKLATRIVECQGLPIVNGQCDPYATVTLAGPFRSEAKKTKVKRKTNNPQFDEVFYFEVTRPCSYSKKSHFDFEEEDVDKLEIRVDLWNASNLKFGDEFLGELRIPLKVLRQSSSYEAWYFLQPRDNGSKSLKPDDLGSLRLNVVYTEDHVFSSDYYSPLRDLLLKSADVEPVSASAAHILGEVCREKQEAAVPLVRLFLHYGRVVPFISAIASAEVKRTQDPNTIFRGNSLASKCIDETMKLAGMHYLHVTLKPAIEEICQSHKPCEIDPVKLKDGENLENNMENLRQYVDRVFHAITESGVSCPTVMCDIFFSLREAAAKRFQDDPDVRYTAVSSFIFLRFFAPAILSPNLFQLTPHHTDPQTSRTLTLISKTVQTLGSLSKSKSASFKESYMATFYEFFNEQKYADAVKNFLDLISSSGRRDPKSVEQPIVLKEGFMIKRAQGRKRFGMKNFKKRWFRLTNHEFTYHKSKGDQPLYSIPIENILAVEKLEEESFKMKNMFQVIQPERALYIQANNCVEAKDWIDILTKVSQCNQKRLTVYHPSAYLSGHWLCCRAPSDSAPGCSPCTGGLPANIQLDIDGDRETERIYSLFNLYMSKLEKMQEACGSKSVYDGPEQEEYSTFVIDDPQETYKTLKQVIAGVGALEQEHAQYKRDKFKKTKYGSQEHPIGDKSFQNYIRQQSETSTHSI
UniProt Q15771: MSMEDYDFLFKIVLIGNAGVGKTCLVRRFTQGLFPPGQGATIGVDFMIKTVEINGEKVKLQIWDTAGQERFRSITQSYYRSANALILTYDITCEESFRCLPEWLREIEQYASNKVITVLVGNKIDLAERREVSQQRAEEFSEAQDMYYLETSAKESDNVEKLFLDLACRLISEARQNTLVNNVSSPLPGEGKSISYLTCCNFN

[2] = compound: NC(=O)c1cnc(N[C@@H]2CCCC[C@@H]2N)nc1Nc1cccc(-n2nccn2)c1
How it was run: as §1

[3] = compound: NC1(c2ccc(-c3nc4ccn5c(=O)[nH]nc5c4cc3-c3ccccc3)cc2)CCC1
How it was run: as §1

[4] = compound: NCC(=O)Nc1ccc(-n2nc(C(F)(F)F)cc2-c2ccc3c(ccc4ccccc43)c2)cc1
How it was run: as §1

entinostat = compound: Nc1ccccc1NC(=O)c1ccc(CNC(=O)OCc2cccnc2)cc1 [entinostat]
How it was run: as §1

vorinostat = compound: O=C(CCCCCCC(=O)Nc1ccccc1)NO [vorinostat]
How it was run: as §1

citarinostat = compound: O=C(CCCCCCNC(=O)c1cnc(N(c2ccccc2)c2ccccc2Cl)nc1)NO [citarinostat]
How it was run: as §1

silmitasertib = compound: O=C(O)c1ccc2c(c1)nc(Nc1cccc(Cl)c1)c1ccncc12 [silmitasertib]
How it was run: as §1

[5] = compound: O=C1NC(=O)C(c2cnc3ccccn23)=C1c1cn2c3c(cc(F)cc13)CN(C(=O)N1CCCCC1)CC2
How it was run: as §1

[6] = compound: c1cc(OCCN2CCCCC2)cc(-c2n[nH]c3ccc(-c4nnc[nH]4)cc23)c1
How it was run: as §1

entospletinib = compound: c1cn2cc(-c3ccc4cn[nH]c4c3)nc(Nc3ccc(N4CCOCC4)cc3)c2n1 [entospletinib]
How it was run: as §1

| Target | log2 fold change [1] | log2 fold change [2] | log2 fold change [3] | log2 fold change [4] | log2 fold change (entinostat) | log2 fold change (vorinostat) | log2 fold change (citarinostat) | log2 fold change (silmitasertib) | log2 fold change [5] | log2 fold change [6] | log2 fold change (entospletinib) |
| --- | --- | --- | --- | --- | --- | --- | --- | --- | --- | --- | --- |
| RANBP9 (UniProt Q96S59) | inactive: -0.004 | inactive: 0.009 | inactive: -0.081 | inactive: -0.021 | inactive: 0.009 | inactive: 0 | inactive: 0.042 | inactive: 0.072 | inactive: -0.016 | inactive: -0.046 | inactive: 0.023 |
| RAPGEF2, A0A2R8YGD3 | inactive: -0.203 | inactive: -0.149 | inactive: -0.079 | inactive: -0.243 | inactive: 0.022 | inactive: -0.05 | – | inactive: 0.018 | inactive: 0.046 | – | – |
| RAB43 (UniProt Q86YS6) | inactive: -0.002 | inactive: -0.003 | inactive: 0.017 | inactive: 0.058 | inactive: -0.093 | inactive: -0.061 | inactive: 0.038 | inactive: -0.048 | inactive: -0.065 | inactive: -0.087 | inactive: -0.061 |
| RAB35 (UniProt Q15286) | inactive: -0.069 | inactive: -0.012 | inactive: -0.01 | inactive: 0.012 | inactive: -0.011 | inactive: -0.021 | inactive: 0.004 | inactive: 0.02 | inactive: -0.038 | inactive: -0.01 | inactive: 0.049 |
| RAP1B (UniProt F5GZG1) | inactive: -0.036 | inactive: -0.063 | inactive: -0.013 | inactive: -0.005 | inactive: -0.106 | – | inactive: -0.125 | inactive: 0.062 | inactive: -0.103 | inactive: -0.101 | inactive: 0.042 |
| RASA2 (UniProt Q15283) | inactive: 0.105 | inactive: -0.495 | inactive: -0.105 | inactive: -0.24 | inactive: -0.094 | inactive: 0.017 | inactive: -0.317 | inactive: 0.064 | inactive: 0.151 | inactive: -0.047 | inactive: 0.173 |
| RABGEF1 isoform 3 (UniProt Q9UJ41) | inactive: -0.01 | inactive: -0.091 | inactive: -0.012 | inactive: -0.066 | inactive: -0.02 | inactive: 0.062 | inactive: 0.042 | inactive: -0.002 | inactive: 0.096 | inactive: -0.019 | inactive: 0.037 |
| RAB18 (UniProt Q9NP72) | inactive: 0.071 | inactive: 0.034 | inactive: -0.022 | inactive: 0.007 | inactive: 0.046 | inactive: 0.027 | inactive: 0.017 | inactive: -0.014 | inactive: 0.005 | inactive: -0.039 | inactive: -0.02 |
| RACK1 (UniProt P63244) | inactive: 0.008 | inactive: 0.056 | inactive: -0.059 | inactive: -0.014 | inactive: -0.003 | inactive: 0.017 | inactive: 0.064 | inactive: -0.077 | inactive: -0.03 | inactive: -0.027 | inactive: -0.015 |
| RANBP3 (UniProt Q9H6Z4) | inactive: 0.024 | inactive: 0.029 | inactive: -0.02 | inactive: -0.013 | inactive: -0.007 | inactive: 0.03 | inactive: 0.041 | inactive: -0.016 | inactive: -0.009 | inactive: 0.012 | inactive: -0.023 |
| RAD18 (UniProt Q9NS91) | inactive: 0.07 | inactive: -0.066 | inactive: 0.082 | inactive: -0.159 | inactive: 0.097 | inactive: 0.181 | – | inactive: 0.087 | inactive: -0.243 | – | – |
| RASSF3 (UniProt Q86WH2) | – | inactive: 0.01 | inactive: 0.291 | inactive: -0.172 | – | inactive: -0.141 | inactive: 0.1 | inactive: 0.127 | – | inactive: -0.035 | inactive: 0.016 |
| RBM14 (UniProt Q96PK6) | – | inactive: -0.149 | inactive: 0.288 | inactive: 0.1 | – | inactive: -0.042 | inactive: 0.047 | inactive: -0.044 | – | inactive: -0.05 | inactive: 0.146 |
| RASSF1 (UniProt Q9NS23) | inactive: 0.027 | – | – | inactive: -0.437 | inactive: 0.132 | – | – | – | – | – | – |
| RAP1B (UniProt F5GWU8) | – | inactive: 0.16 | – | inactive: -0.079 | – | – | – | – | – | – | – |
| RBL1 (UniProt P28749) | – | – | – | – | – | inactive: -0.09 | inactive: 0.263 | – | – | inactive: 0.313 | inactive: -0.258 |
| RAD51D (UniProt O75771) | – | inactive: 0.04 | inactive: -0.075 | inactive: -0.293 | – | inactive: 0.101 | inactive: 0.044 | inactive: 0.032 | – | inactive: 0.017 | inactive: -0.05 |
| RAB19 isoform 2 (UniProt A4D1S5) | inactive: 0.026 | – | – | – | inactive: -0.133 | – | – | – | inactive: 0.295 | – | – |
| RBKS (UniProt Q9H477) | – | inactive: -0.042 | inactive: -0.055 | inactive: -0.041 | – | – | inactive: 0.009 | inactive: 0.306 | – | inactive: -0.068 | inactive: -0.048 |
| RBM23 (UniProt Q86U06) | inactive: 0.133 | – | – | inactive: -0.069 | inactive: 0.067 | – | – | – | inactive: 0.167 | – | – |
| RBBP4 isoform 2 (UniProt Q09028) | – | inactive: 0.015 | inactive: 0.067 | – | – | inactive: -0.135 | inactive: 0.101 | inactive: 0.028 | – | inactive: 0.033 | inactive: -0.097 |
| RBM26 isoform 3 (UniProt Q5T8P6) | inactive: -0.079 | inactive: -0.046 | – | – | inactive: 0.103 | – | – | – | – | – | – |

Record cards, as listed above. Order of values: log2 fold change [1]	log2 fold change [2]	log2 fold change [3]	log2 fold change [4]	log2 fold change (entinostat)	log2 fold change (vorinostat)	log2 fold change (citarinostat)	log2 fold change (silmitasertib)	log2 fold change [5]	log2 fold change [6]	log2 fold change (entospletinib)
RASSF1 (UniProt Q9NS23) is entered as inactive: 0.027	–	–	inactive: -0.437	inactive: 0.132	–	–	–	–	–	–
RAB18 (UniProt Q9NP72) is entered as inactive: 0.071	inactive: 0.034	inactive: -0.022	inactive: 0.007	inactive: 0.046	inactive: 0.027	inactive: 0.017	inactive: -0.014	inactive: 0.005	inactive: -0.039	inactive: -0.02

Next results:

| Target | log2 fold change [1] | log2 fold change [2] | log2 fold change [3] | log2 fold change [4] | log2 fold change (entinostat) | log2 fold change (vorinostat) | log2 fold change (citarinostat) | log2 fold change (silmitasertib) | log2 fold change [5] | log2 fold change [6] | log2 fold change (entospletinib) |
| --- | --- | --- | --- | --- | --- | --- | --- | --- | --- | --- | --- |
| RAD23A isoform 3 (UniProt P54725) | – | – | – | – | – | inactive: -0.03 | – | – | – | – | – |
| RABGAP1L isoform 5 (UniProt Q5R372) | inactive: -0.246 | inactive: -0.094 | inactive: -0.021 | – | inactive: -0.051 | – | – | inactive: 0.106 | active: -0.315 | – | – |
| RAB18 (UniProt H0Y6T8) | – | – | inactive: -0.353 | inactive: -0.072 | – | – | inactive: -0.007 | inactive: 0.053 | – | inactive: -0.099 | inactive: 0.013 |
| RBBP8 isoform 2 (UniProt Q99708) | – | inactive: 0.149 | – | – | – | – | – | – | – | – | – |
| RAB3IL1 (UniProt E9PK89) | inactive: 0.062 | inactive: 0.11 | – | inactive: 0.018 | inactive: -0.023 | inactive: 0.112 | inactive: 0.049 | – | inactive: -0.234 | inactive: 0.016 | – |
| RBFA (UniProt Q8N0V3) | – | – | – | – | – | – | inactive: 0.171 | – | – | inactive: 0.115 | inactive: 0.014 |
| RAB3D (UniProt O95716) | – | inactive: 0.113 | inactive: 0.032 | inactive: -0.007 | – | inactive: -0.126 | inactive: 0.055 | inactive: 0.027 | – | inactive: 0.051 | – |
| RBCK1 (UniProt Q9BYM8) | – | inactive: 0.058 | – | inactive: 0.072 | – | – | – | – | inactive: 0.025 | – | – |
| RALGPS2 (UniProt Q86X27) | – | inactive: 0.258 | inactive: -0.08 | inactive: 0.175 | – | inactive: 0.074 | inactive: 0.219 | inactive: 0.089 | inactive: 0.34 | inactive: -0.153 | – |
| RAPGEF1 isoform 3 (UniProt Q13905) | inactive: -0.58 | – | inactive: -0.067 | – | inactive: -0.029 | – | – | inactive: 0.115 | – | – | – |
| RANBP6 (UniProt O60518) | inactive: 0.06 | – | – | – | inactive: 0.027 | – | inactive: -0.096 | – | – | inactive: -0.246 | inactive: 0.048 |
| RBM28 (UniProt Q9NW13) | inactive: 0.122 | inactive: 0.009 | inactive: -0.252 | – | inactive: -0.005 | – | inactive: -0.022 | inactive: 0.137 | inactive: 0.054 | inactive: -0.09 | inactive: 0.22 |
| RAI1 (UniProt Q7Z5J4) | inactive: -0.244 | – | inactive: -0.208 | – | inactive: -0.06 | – | – | inactive: -0.154 | inactive: -1.04 | – | – |
| RAB28 (UniProt P51157) | – | inactive: -0.071 | – | inactive: -0.003 | – | inactive: -0.016 | – | – | – | – | – |
| RAB3B (UniProt P20337) | inactive: 0.031 | – | – | – | inactive: -0.098 | inactive: 0.125 | – | – | – | – | – |
| RAB11FIP4 (UniProt Q86YS3) | inactive: -0.13 | – | – | – | inactive: 0.015 | – | – | – | – | – | – |
| RASA3 (UniProt Q14644) | – | – | – | – | – | inactive: 0.283 | – | – | – | – | – |
| RANBP3 isoform 2 (UniProt Q9H6Z4) | inactive: -0.032 | – | inactive: 0.003 | – | inactive: 0.05 | inactive: -0.055 | inactive: 0.074 | inactive: 0.005 | – | inactive: -0.011 | inactive: -0.069 |
| RALBP1 (UniProt Q15311) | inactive: -0.155 | inactive: -0.03 | – | inactive: -0.035 | inactive: 0.04 | inactive: -0.029 | – | – | inactive: 0.266 | – | – |
| RBBP9 (UniProt O75884) | inactive: 0.038 | – | inactive: -0.454 | inactive: 0 | inactive: -0.012 | – | – | inactive: -0.001 | inactive: -0.193 | – | – |
| RANGRF (UniProt Q9HD47) | – | – | – | – | – | – | inactive: -0.052 | – | – | inactive: 0.005 | inactive: 0.062 |
| RAB30 (UniProt Q15771) | – | inactive: -0.059 | inactive: 0.004 | inactive: 0.049 | – | inactive: -0.139 | inactive: 0.033 | inactive: -0.03 | inactive: -0.014 | inactive: -0.038 | inactive: 0.02 |

Single values from the list.
log2 fold change [3] with RABGAP1L isoform 5 (UniProt Q5R372) is entered as inactive: -0.021
log2 fold change [6] with RBFA (UniProt Q8N0V3) is entered as inactive: 0.115
log2 fold change [6] with RAB3IL1 (UniProt E9PK89) is entered as inactive: 0.016

Source: the supplement of paper PMC10849652
